The list shows only some results of the screen, not a fair sample: it gathers tests that were run many times, whatever their T/C, doses with no T/C, and many T/C values between a quarter and a half above the control. Other doses and runs of a compound stand elsewhere. T/C is the treated group as % of the vehicle group. Some entries give survivors of the animals treated and no T/C: the source holds a T/C of zero for them, seemingly a mark for toxic or unscored doses. Some survivor counts are full or nearly so, which does not show that the dose was tolerated: the source hardly ever lists a survival T/C far under the control, and the zero likely stands for such cases as well. Counts of survivors are from the toxicity check (mostly the fifth day) where no day follows; animals may have died later. Schedule codes are those of the source, taken here to give the interval after Q, in days (D) or hours (H), and the number of doses after X. Some schedules carry Z or #; the key to these is not given. Some entries hold several experiments; their values stand side by side, smallest first. Where survival is the endpoint, this PubChem deposit counts one and a half times the control or more as active, and values a quarter to a half above the control carry no call in these data; other NCI protocols may use other cut-offs.
Test system: BDF1 mice, L1210 6-MP/6-TG resistant leukemia ip, survival T/C
Assay: NCI In Vivo Anticancer Drug Screen. Data for tumor model L1210 Leukemia resistant to 6-MP and 6-Thioguanine; NSC 755, NSC 752 (intraperitoneal) in B6D2F1 (BDF1) mice
Settings: T/C endpoint: mean survival time, higher T/C = longer survival
Procedure: The antitumor activity of compounds was measured in mice bearing transplantable tumors. Survival or tumor size were measured and the results are expressed as the measurement made in the treated group (T) divided by the measurement made in the vehicle treated control group (C). The tumor model used in this assay is L1210 Leukemia resistant to 6-MP and 6-Thioguanine; NSC 755, NSC 752 (intraperitoneal) in B6D2F1 (BDF1) mice

[1] = dose: 500.0 mg/kg/injection, schedule: Q01DX Z (ip), vehicle: carboxymethylcellulose (CMC)

Question: What does the source list for CC/C(=C(/CC)c1ccc(O)cc1)c1ccc(O)cc1?
Answer: survivor count (dose: 125.0 mg/kg/injection, schedule: Q01DX Z (sc), vehicle: steroid suspending solution): 6 of 6; survivor count (dose: 250.0 mg/kg/injection, schedule: Q01DX Z (sc), vehicle: steroid suspending solution): 6 of 6; survivor count (dose: 500.0 mg/kg/injection, schedule: Q01DX Z (sc), vehicle: steroid suspending solution): 6 of 6; survivor count (dose: 1000.0 mg/kg/injection, schedule: Q01DX Z (sc), vehicle: steroid suspending solution): 6 of 6

Question: How did the T/C (dose: 50.0 mg/kg/injection, schedule: Q01DX Z (ip), vehicle: carboxymethylcellulose (CMC)) turn out when O=c1[nH]c(=O)n(C2CC(O)C(CO)O2)cc1I (stereo unspecified) was run?
Answer: 127 % of control

Question: And the survivor count [1]?
Answer: 4 of 6

Question: Which survivor count (dose: 100.0 mg/kg/injection, schedule: Q01DX Z (ip), vehicle: carboxymethylcellulose (CMC)) does the source give for Clc1ncnc2nc[nH]c12 here?
Answer: 6 of 6

Question: What about the survivor count (dose: 250.0 mg/kg/injection, schedule: Q01DX Z (ip), vehicle: carboxymethylcellulose (CMC)) of the same compound?
Answer: 6 of 6

Question: What about the survivor count (dose: 350.0 mg/kg/injection, schedule: Q01DX Z (ip), vehicle: carboxymethylcellulose (CMC)) of the same compound?
Answer: 1 of 6

Question: What about the survivor count (dose: 400.0 mg/kg/injection, schedule: Q01DX Z (ip), vehicle: carboxymethylcellulose (CMC)) of the same compound?
Answer: 0 of 6

Question: And the survivor count (dose: 500.0 mg/kg/injection, schedule: Q01DX001 (ip), vehicle: carboxymethylcellulose (CMC))?
Answer: 0 of 10 and 1 of 10

Question: And the survivor count (dose: 750.0 mg/kg/injection, schedule: Q01DX001 (ip), vehicle: carboxymethylcellulose (CMC))?
Answer: 0 of 10

Question: And the survivor count (dose: 1000.0 mg/kg/injection, schedule: Q01DX001 (ip), vehicle: carboxymethylcellulose (CMC))?
Answer: 0 of 10

Question: How did the survivor count (dose: 250.0 mg/kg/injection, schedule: Q01DX Z (ip), vehicle: other) turn out when Clc1ncnc2c1ncn2C1CCCCO1 (stereo unspecified) was run?
Answer: 5 of 6

Question: What about the survivor count (dose: 500.0 mg/kg/injection, schedule: Q01DX Z (ip), vehicle: other) of the same compound?
Answer: 0 of 6

Question: Which survivor count (dose: 12.0 mg/kg/injection, schedule: Q01DX009 (ip), vehicle: other) does the source give for Nc1nc(=S)c2ncn(C3OC(CO)CC3O)c2[nH]1 (stereo unspecified) here?
Answer: 6 of 6

Question: And the survivor count (dose: 25.0 mg/kg/injection, schedule: Q01DX015 (ip), vehicle: other)?
Answer: 6 of 6

Question: What about the survivor count (dose: 50.0 mg/kg/injection, schedule: Q01DX015 (ip), vehicle: other) of the same compound?
Answer: 6 of 6

Question: And the survivor count (dose: 100.0 mg/kg/injection, schedule: Q01DX015 (ip), vehicle: other)?
Answer: 6 of 6

Question: With Cn1c(N)nc2nc[nH]c2c1=S as the compound, how does the survivor count (dose: 150.0 mg/kg/injection, schedule: Q01DX Z (ip), vehicle: carboxymethylcellulose (CMC)) read?
Answer: 2 of 6

Question: With OCC1OC(n2cnc3c(=S)nc[nH]c32)C(O)C1O (stereo unspecified) as the compound, how does the survivor count (dose: 400.0 mg/kg/injection, schedule: Q01DX010 (ip), vehicle: carboxymethylcellulose (CMC)) read?
Answer: 10 of 10

Question: For Cn1cnc2c(SCc3ccccc3)ncnc21, which survivor count (dose: 375.0 mg/kg/injection, schedule: Q01DX Z (ip), vehicle: carboxymethylcellulose (CMC)) is on record?
Answer: 6 of 6

Question: And the survivor count [1]?
Answer: 1 of 6

Question: What does the source list for O=C(Nc1ccc(C2=NCCN2)cc1)c1ccc(C(=O)Nc2ccc(C3=NCCN3)cc2)c([N+](=O)[O-])c1?
Answer: T/C (dose: 4.0 mg/kg/injection, schedule: Q01DX Z (ip), vehicle: methylcellulose (MC)): 126 % of control; T/C (dose: 12.0 mg/kg/injection, schedule: Q01DX Z (ip), vehicle: carboxymethylcellulose (CMC)): 126 % of control; T/C (dose: 18.0 mg/kg/injection, schedule: Q01DX Z (ip), vehicle: carboxymethylcellulose (CMC)): 132 % of control; survivor count (dose: 40.0 mg/kg/injection, schedule: Q01DX Z (ip), vehicle: carboxymethylcellulose (CMC)): 9 of 10; T/C (dose: 40.0 mg/kg/injection, schedule: Q02DX010 (ip), vehicle: saline): 146 % of control; survivor count (dose: 90.0 mg/kg/injection, schedule: Q02DX010 (ip), vehicle: saline): 9 of 10; survivor count (dose: 135.0 mg/kg/injection, schedule: Q02DX010 (ip), vehicle: saline): 3 of 10

Question: With O=c1cn[nH]c(=O)[nH]1 as the compound, how does the T/C (dose: 750.0 mg/kg/injection, schedule: Q01DX Z (ip), vehicle: carboxymethylcellulose (CMC)) read?
Answer: 137 % of control

— PubChem BioAssay AID308 (DTP/NCI, 2004)
